Assay results: the supplement of paper PMC6411743
± gives the standard deviation of the averaged measurements. This is a selection; strong and weak results do not stand in their true shares.

The chains behind the UniProt entries cited, without tags or fusion partners. Where a name states a change or a piece, a line headed by the entry shows the natural chain unless it says otherwise.
UniProt P42575: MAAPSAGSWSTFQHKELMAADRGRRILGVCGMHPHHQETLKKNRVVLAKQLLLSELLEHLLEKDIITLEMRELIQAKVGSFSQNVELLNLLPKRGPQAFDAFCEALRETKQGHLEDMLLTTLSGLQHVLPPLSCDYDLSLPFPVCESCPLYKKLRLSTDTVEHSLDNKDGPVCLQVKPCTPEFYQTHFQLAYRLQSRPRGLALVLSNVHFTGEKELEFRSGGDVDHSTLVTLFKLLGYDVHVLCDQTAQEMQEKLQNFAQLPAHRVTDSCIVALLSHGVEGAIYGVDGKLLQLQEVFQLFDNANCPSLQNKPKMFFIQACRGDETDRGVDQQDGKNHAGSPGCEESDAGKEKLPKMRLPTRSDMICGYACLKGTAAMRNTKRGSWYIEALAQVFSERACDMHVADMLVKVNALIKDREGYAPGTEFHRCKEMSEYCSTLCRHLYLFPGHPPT
UniProt P38606, whole entry: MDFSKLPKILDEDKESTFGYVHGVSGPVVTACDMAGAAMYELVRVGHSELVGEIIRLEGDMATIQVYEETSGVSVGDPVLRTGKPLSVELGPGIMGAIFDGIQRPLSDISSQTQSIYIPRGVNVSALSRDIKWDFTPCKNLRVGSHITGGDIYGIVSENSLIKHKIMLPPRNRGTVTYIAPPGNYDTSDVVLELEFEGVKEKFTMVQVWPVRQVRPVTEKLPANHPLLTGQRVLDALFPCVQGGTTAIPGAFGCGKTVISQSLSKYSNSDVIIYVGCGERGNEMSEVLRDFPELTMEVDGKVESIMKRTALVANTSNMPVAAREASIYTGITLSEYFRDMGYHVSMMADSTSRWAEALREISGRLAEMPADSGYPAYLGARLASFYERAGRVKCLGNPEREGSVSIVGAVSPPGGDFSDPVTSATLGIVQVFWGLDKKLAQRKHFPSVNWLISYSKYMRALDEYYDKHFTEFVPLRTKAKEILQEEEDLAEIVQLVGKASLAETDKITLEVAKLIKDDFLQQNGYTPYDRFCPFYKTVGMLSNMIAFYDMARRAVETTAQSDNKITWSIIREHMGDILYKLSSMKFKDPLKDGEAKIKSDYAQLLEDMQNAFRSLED
UniProt P50613: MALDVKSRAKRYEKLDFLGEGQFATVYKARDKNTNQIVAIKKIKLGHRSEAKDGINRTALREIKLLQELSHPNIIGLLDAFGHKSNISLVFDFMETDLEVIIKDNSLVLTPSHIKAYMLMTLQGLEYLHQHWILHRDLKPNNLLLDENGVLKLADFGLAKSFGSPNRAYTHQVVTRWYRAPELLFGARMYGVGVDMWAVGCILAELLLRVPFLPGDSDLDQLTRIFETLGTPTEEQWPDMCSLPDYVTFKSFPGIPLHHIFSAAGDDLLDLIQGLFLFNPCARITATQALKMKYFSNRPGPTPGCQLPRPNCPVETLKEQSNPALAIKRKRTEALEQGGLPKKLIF
UniProt P36915, whole entry: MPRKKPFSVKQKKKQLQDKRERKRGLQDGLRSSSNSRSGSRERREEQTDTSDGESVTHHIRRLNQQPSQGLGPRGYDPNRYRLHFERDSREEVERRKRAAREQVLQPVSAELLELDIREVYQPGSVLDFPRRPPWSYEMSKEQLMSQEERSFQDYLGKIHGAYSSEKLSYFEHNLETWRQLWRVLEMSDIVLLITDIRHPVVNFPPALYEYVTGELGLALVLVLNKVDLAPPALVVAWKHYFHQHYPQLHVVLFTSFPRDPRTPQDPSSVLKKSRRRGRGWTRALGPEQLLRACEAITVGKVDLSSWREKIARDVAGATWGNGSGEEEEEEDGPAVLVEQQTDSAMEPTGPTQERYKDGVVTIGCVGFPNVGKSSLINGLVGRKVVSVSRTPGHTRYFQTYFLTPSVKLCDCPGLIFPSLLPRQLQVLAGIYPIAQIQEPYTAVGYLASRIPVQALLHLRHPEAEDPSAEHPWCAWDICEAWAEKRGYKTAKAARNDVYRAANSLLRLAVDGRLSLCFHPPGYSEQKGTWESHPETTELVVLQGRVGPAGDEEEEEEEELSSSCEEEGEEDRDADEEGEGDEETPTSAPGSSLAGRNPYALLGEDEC
UniProt P37198: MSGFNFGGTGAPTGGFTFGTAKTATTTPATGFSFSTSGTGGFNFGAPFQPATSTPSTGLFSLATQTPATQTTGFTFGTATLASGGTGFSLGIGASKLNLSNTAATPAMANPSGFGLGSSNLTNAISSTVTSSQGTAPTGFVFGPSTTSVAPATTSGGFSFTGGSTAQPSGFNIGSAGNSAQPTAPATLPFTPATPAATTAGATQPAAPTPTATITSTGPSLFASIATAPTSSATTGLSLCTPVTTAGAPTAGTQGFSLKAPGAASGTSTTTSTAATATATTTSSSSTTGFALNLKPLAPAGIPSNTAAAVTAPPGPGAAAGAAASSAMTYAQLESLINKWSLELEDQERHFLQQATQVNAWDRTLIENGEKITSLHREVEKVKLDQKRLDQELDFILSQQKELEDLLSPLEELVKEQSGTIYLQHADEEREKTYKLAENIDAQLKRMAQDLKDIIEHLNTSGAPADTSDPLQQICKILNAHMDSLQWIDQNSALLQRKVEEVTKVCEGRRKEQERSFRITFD
UniProt P48735: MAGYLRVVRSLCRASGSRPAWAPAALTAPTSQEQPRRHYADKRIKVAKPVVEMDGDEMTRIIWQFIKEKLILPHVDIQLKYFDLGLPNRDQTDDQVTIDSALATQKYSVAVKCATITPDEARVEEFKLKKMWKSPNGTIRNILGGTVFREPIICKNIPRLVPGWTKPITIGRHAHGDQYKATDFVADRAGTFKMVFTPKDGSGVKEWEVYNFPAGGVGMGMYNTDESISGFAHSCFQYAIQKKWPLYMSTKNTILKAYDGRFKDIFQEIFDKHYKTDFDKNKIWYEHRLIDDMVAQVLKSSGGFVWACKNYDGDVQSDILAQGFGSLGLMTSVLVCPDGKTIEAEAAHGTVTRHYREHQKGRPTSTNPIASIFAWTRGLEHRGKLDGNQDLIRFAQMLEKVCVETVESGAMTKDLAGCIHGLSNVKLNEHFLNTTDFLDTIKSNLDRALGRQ
UniProt P51828: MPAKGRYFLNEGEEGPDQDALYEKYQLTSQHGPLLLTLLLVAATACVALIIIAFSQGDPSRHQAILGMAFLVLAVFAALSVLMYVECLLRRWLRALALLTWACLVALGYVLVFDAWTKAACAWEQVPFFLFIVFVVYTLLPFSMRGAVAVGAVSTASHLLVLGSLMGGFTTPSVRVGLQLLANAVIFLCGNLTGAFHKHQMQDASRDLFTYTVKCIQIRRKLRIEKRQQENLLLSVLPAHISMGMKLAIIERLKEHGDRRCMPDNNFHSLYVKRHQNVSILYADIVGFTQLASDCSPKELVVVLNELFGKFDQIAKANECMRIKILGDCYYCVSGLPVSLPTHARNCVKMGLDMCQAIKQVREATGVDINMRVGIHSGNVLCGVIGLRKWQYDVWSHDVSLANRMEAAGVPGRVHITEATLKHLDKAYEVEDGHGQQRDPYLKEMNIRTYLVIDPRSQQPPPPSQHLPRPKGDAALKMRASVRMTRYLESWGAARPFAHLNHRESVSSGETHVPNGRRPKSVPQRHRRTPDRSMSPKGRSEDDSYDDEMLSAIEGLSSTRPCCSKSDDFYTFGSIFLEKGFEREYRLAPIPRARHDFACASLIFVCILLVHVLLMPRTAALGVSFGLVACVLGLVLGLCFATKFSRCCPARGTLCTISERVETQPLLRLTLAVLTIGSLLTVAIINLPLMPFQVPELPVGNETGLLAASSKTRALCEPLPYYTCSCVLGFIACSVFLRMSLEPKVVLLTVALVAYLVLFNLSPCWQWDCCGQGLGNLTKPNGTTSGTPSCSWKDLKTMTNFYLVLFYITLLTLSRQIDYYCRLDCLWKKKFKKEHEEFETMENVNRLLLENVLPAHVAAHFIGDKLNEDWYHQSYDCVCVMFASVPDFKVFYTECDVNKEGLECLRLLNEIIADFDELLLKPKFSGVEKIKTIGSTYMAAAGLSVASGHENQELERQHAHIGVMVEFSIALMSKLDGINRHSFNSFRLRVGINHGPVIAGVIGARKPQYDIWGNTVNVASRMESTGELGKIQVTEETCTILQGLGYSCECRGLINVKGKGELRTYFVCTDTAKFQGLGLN
UniProt P51572: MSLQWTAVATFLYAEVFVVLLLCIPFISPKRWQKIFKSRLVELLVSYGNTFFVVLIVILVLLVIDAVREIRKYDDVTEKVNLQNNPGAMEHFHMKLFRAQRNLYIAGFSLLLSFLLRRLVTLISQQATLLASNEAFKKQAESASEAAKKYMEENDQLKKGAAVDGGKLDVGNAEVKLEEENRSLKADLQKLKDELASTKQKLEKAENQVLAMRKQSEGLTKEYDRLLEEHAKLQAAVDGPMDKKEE
UniProt P52306: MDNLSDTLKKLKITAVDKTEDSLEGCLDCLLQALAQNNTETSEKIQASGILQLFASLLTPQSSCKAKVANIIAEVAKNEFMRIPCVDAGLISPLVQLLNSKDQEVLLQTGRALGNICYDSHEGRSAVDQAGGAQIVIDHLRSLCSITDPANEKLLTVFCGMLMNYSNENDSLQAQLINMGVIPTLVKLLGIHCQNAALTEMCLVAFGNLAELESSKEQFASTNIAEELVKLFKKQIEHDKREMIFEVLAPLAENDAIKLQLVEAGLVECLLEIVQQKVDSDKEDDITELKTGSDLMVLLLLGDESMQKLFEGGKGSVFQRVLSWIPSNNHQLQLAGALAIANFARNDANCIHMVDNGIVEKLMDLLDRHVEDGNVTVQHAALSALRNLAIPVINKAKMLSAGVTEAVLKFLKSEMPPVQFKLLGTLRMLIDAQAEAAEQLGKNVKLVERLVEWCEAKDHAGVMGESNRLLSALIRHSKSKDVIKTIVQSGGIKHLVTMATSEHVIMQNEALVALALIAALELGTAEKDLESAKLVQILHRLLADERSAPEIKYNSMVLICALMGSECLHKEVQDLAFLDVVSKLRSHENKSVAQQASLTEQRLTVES
UniProt P42773: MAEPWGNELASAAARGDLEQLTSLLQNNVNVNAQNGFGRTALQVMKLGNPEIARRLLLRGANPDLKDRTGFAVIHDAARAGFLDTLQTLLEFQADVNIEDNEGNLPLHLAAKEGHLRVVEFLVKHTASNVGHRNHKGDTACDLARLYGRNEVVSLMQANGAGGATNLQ
UniProt P51571: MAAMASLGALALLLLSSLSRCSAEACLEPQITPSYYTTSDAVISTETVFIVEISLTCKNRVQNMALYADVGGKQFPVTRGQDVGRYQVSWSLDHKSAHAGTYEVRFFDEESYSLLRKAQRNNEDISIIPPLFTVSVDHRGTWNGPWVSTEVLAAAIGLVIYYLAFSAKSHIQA
UniProt P50454: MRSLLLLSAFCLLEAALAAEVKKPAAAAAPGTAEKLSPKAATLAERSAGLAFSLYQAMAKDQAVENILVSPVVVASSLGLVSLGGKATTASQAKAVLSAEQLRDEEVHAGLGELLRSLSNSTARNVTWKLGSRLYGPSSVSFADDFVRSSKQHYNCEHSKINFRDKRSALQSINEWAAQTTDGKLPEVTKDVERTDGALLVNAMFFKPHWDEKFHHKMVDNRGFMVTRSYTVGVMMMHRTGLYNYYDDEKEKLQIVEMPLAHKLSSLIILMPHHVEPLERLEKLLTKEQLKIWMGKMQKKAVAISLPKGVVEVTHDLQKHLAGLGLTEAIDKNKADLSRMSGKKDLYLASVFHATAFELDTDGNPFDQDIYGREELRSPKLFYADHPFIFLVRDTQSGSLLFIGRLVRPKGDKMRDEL
UniProt P42898: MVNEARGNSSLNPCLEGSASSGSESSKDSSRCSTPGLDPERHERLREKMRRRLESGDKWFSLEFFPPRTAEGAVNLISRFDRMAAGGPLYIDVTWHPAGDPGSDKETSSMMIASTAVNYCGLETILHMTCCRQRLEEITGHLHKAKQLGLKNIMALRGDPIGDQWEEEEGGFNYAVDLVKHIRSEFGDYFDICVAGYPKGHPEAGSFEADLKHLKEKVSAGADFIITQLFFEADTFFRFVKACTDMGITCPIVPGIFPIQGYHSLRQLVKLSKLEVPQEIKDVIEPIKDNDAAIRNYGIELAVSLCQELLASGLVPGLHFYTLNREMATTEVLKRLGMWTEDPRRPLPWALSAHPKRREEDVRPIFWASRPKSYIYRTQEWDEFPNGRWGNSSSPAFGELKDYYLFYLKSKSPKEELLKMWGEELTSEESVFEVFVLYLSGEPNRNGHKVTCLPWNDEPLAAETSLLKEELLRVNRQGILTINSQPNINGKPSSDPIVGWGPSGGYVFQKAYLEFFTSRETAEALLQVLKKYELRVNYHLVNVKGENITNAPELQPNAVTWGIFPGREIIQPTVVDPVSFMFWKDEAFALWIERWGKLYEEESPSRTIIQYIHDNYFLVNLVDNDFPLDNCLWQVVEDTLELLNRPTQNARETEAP
UniProt P50583: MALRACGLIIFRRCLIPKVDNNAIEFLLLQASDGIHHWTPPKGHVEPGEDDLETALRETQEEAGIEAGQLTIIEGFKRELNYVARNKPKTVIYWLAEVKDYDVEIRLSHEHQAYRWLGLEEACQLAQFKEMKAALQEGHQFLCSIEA
UniProt P51397: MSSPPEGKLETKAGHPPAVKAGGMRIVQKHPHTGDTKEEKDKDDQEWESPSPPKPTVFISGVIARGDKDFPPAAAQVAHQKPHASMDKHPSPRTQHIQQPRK

Compound: Nc1ncnc2c1ncn2[C@@H]1O[C@H](COP(=O)(O)OP(=O)(O)OP(=O)(O)O)[C@@H](O)[C@H]1O [adenosine triphosphate]
Test: NP40-soluble protein abundance relative to vehicle (solubility fold change) (ratio); higher = more soluble protein in presence of ATP
How it was run: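 Crude Jurkat lysate, prepared by Dounce homogenisation, was exposed to eight concentrations from 0.1 to 10 mM for 10 min at room temperature and then 3 min at 37 °C. Solubilisation used 0.8% NP40 with benzonase for 60 min at 4 °C, followed by ultracentrifugation and TMT labelling of the supernatant for LC-MS/MS. After vsn normalisation of intensities, each value is the fold change against the detergent-processed vehicle within each replicate, across three independent experiments.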

Target	NP40-soluble protein abundance (concentration: 1mM)	NP40-soluble protein abundance (concentration: 2mM)	NP40-soluble protein abundance (concentration: 4mM)	NP40-soluble protein abundance (concentration: 6mM)	NP40-soluble protein abundance (concentration: 8mM)	NP40-soluble protein abundance (concentration: 10mM)
UniProt P52888 and related entries	0.989 ± 0.036	0.962 ± 0.041	0.953 ± 0.037	0.942 ± 0.077	0.97 ± 0.021	0.933 ± 0.039
RPS19 (UniProt P39019)	0.863 ± 0.16	0.786 ± 0.19	0.74 ± 0.17	0.769 ± 0.24	0.573 ± 0.14	0.683 ± 0.17
CCT3 (UniProt P49368)	0.977 ± 0.074	0.904 ± 0.037	0.844 ± 0.03	0.83 ± 0.11	0.864 ± 0.067	0.834 ± 0.063
CASP2 (UniProt P42575)	1.06 ± 0.11	1.02 ± 0.086	1.02 ± 0.097	1.03 ± 0.13	0.998 ± 0.12	0.991 ± 0.07
ATP6V1A (UniProt P38606)	1.01 ± 0.035	0.981 ± 0.021	0.969 ± 0.042	0.933 ± 0.059	0.986 ± 0.033	0.97 ± 0.028
CRIP2 (UniProt P52943)	0.961 ± 0.045	0.973 ± 0.022	0.952 ± 0.022	0.976 ± 0.013	0.952 ± 0.05	0.94 ± 0.053
NOTCH1 (UniProt P46531)	0.966 ± 0.064	0.974 ± 0.053	0.945 ± 0.027	0.993 ± 0.02	0.926 ± 0.036	0.949 ± 0.018
GNPDA1 (UniProt P46926)	0.988 ± 0.15	0.962 ± 0.11	0.925 ± 0.073	0.878 ± 0.14	0.912 ± 0.0098	0.956 ± 0.087
UniProt P50613	0.998 ± 0.079	1.01 ± 0.061	1 ± 0.053	1.01 ± 0.1	1.02 ± 0.04	1.04 ± 0.029
GNL1 (UniProt P36915)	1.03 ± 0.014	1.03 ± 0.023	1.03 ± 0.022	1.02 ± 0.053	1.05 ± 0.029	1.01 ± 0.034
NUP62 (UniProt P37198)	0.994 ± 0.044	1 ± 0.037	0.985 ± 0.036	1.03 ± 0.029	0.999 ± 0.055	0.995 ± 0.06
IDH2 (UniProt P48735)	0.905 ± 0.12	0.942 ± 0.015	0.911 ± 0.037	0.876 ± 0.13	0.899 ± 0.12	0.929 ± 0.063
HTT (UniProt P42858)	1.04 ± 0.026	1.01 ± 0.017	0.986 ± 0.015	0.963 ± 0.031	0.987 ± 0.013	0.978 ± 0.036
EIF2B2 (UniProt P49770)	0.972 ± 0.037	0.942 ± 0.018	0.948 ± 0.037	0.96 ± 0.016	1 ± 0.013	0.972 ± 0.02
ADCY7 (UniProt P51828)	1.04 ± 0.043	1.05 ± 0.15	1.17 ± 0.11	1.11 ± 0.16	1.03 ± 0.096	1.08 ± 0.027
EIF4A3 (UniProt P38919)	1.09 ± 0.17	1.06 ± 0.12	1.05 ± 0.084	0.959 ± 0.18	1.09 ± 0.053	1.08 ± 0.08
UniProt P45974 and related entries	0.995 ± 0.01	0.981 ± 0.02	0.957 ± 0.021	0.983 ± 0.029	0.953 ± 0.052	0.94 ± 0.035
UniProt P51572 and related entries	0.927 ± 0.091	0.9028 ± 0.0085	0.942 ± 0.01	1.03 ± 0.057	0.954 ± 0.038	0.913 ± 0.074
TRAPPC10 (UniProt P48553)	1.08 ± 0.022	1 ± 0.015	1.06 ± 0.093	0.989 ± 0.061	1.06 ± 0.1	1.046 ± 0.0087
ARL2 (UniProt P36404)	1.03 ± 0.082	1.03 ± 0.083	0.99 ± 0.049	0.962 ± 0.11	1 ± 0.093	0.997 ± 0.072
UniProt P49641 and related entries	0.976 ± 0.059	0.981 ± 0.048	0.959 ± 0.037	1 ± 0.12	0.974 ± 0.081	1.01 ± 0.055
HSPA9 (UniProt P38646)	0.886 ± 0.1	0.977 ± 0.12	0.841 ± 0.073	1.03 ± 0.16	0.941 ± 0.034	0.862 ± 0.1
UniProt P49720	0.83 ± 0.073	0.839 ± 0.091	0.839 ± 0.058	0.724 ± 0.051	0.854 ± 0.094	0.894 ± 0.081
UBA7 (UniProt P41226)	1.01 ± 0.062	1.01 ± 0.033	1.04 ± 0.085	1.04 ± 0.046	0.999 ± 0.085	0.9871 ± 0.0038
HSD17B4 (UniProt P51659)	0.954 ± 0.054	0.965 ± 0.039	0.93 ± 0.043	0.922 ± 0.073	0.939 ± 0.031	0.962 ± 0.031

Laid out differently: entries from further up
Target | NP40-soluble protein abundance (concentration: 1mM) | NP40-soluble protein abundance (concentration: 2mM) | NP40-soluble protein abundance (concentration: 4mM) | NP40-soluble protein abundance (concentration: 6mM) | NP40-soluble protein abundance (concentration: 8mM) | NP40-soluble protein abundance (concentration: 10mM)
NOTCH1 (UniProt P46531) | 0.966 ± 0.064 | 0.974 ± 0.053 | 0.945 ± 0.027 | 0.993 ± 0.02 | 0.926 ± 0.036 | 0.949 ± 0.018
GNPDA1 (UniProt P46926) | 0.988 ± 0.15 | 0.962 ± 0.11 | 0.925 ± 0.073 | 0.878 ± 0.14 | 0.912 ± 0.0098 | 0.956 ± 0.087

(next part)

Target	NP40-soluble protein abundance (concentration: 1mM)	NP40-soluble protein abundance (concentration: 2mM)	NP40-soluble protein abundance (concentration: 4mM)	NP40-soluble protein abundance (concentration: 6mM)	NP40-soluble protein abundance (concentration: 8mM)	NP40-soluble protein abundance (concentration: 10mM)
UniProt P52306 and related entries	0.901 ± 0.089	0.906 ± 0.077	0.873 ± 0.078	0.873 ± 0.1	0.892 ± 0.076	0.909 ± 0.066
RPL5 (UniProt P46777)	0.898 ± 0.037	0.889 ± 0.054	0.856 ± 0.059	0.837 ± 0.058	0.763 ± 0.02	0.863 ± 0.042
STT3A (UniProt P46977)	1.04 ± 0.1	1.01 ± 0.096	1.01 ± 0.051	0.93 ± 0.1	1.03 ± 0.072	0.983 ± 0.067
NCBP2 (UniProt P52298)	0.975 ± 0.05	1 ± 0.031	1.01 ± 0.027	1.06 ± 0.059	1.08 ± 0.029	1.09 ± 0.026
GMPS (UniProt P49915)	1.01 ± 0.053	0.982 ± 0.052	0.965 ± 0.021	0.961 ± 0.089	0.999 ± 0.03	0.978 ± 0.036
HMGCL (UniProt P35914)	0.916 ± 0.02	0.936 ± 0.039	0.929 ± 0.0096	0.944 ± 0.044	0.893 ± 0.021	0.914 ± 0.052
CDKN2C (UniProt P42773)	0.893 ± 0.098	0.922 ± 0.14	0.888 ± 0.075	0.897 ± 0.1	0.839 ± 0.052	0.815 ± 0.11
SSR4 (UniProt P51571)	1.02 ± 0.048	1.02 ± 0.044	0.992 ± 0.066	0.972 ± 0.082	1.01 ± 0.071	0.983 ± 0.035
PGM1 (UniProt P36871)	0.985 ± 0.069	0.958 ± 0.061	0.92 ± 0.042	0.935 ± 0.099	0.936 ± 0.051	0.936 ± 0.051
FDFT1 (UniProt P37268)	1.03 ± 0.11	1.02 ± 0.065	0.99 ± 0.064	0.936 ± 0.12	0.99 ± 0.075	0.967 ± 0.048
CRKL (UniProt P46109)	0.967 ± 0.054	0.986 ± 0.027	0.968 ± 0.016	0.968 ± 0.026	0.961 ± 0.013	0.961 ± 0.015
CCT6A (UniProt P40227)	1.04 ± 0.24	0.87 ± 0.2	0.898 ± 0.1	0.697 ± 0.18	0.902 ± 0.082	0.75 ± 0.18
UniProt P49336 and related entries	1.08 ± 0.074	1 ± 0.12	0.988 ± 0.067	1.07 ± 0.12	1.03 ± 0.056	1.01 ± 0.035
SERPINH1 (UniProt P50454)	0.962 ± 0.017	0.9584 ± 0.0094	0.964 ± 0.015	0.948 ± 0.026	0.917 ± 0.018	0.913 ± 0.011
UniProt P42898 and related entries	1.08 ± 0.13	1.06 ± 0.08	1.05 ± 0.085	0.991 ± 0.071	1.07 ± 0.039	1.04 ± 0.094
UniProt P49757 and related entries	1.1 ± 0.045	1.12 ± 0.044	1.11 ± 0.019	1.14 ± 0.018	1.09 ± 0.022	1.103 ± 0.0072
UniProt P46939 and related entries	0.967 ± 0.028	0.986 ± 0.011	0.9901 ± 0.0028	1.01 ± 0.035	0.956 ± 0.017	0.9861 ± 0.0089
NUDT2 (UniProt P50583)	1.05 ± 0.16	0.993 ± 0.025	0.953 ± 0.019	0.887 ± 0.088	0.957 ± 0.0097	0.946 ± 0.027
CSK (UniProt P41240)	1.02 ± 0.07	0.99 ± 0.061	0.97 ± 0.054	0.964 ± 0.093	0.995 ± 0.051	0.968 ± 0.055
GCLC (UniProt P48506)	1.03 ± 0.064	0.993 ± 0.067	0.996 ± 0.06	0.973 ± 0.1	1.02 ± 0.052	0.983 ± 0.057
LMAN1 (UniProt P49257)	1.02 ± 0.051	0.995 ± 0.032	0.966 ± 0.039	0.995 ± 0.063	0.992 ± 0.04	0.967 ± 0.054
DAP (UniProt P51397)	0.911 ± 0.11	0.935 ± 0.07	0.929 ± 0.13	1 ± 0.04	0.825 ± 0.059	0.917 ± 0.086
UniProt P52630 and related entries	1.01 ± 0.12	1.02 ± 0.092	1.03 ± 0.07	0.977 ± 0.091	1.02 ± 0.06	0.982 ± 0.077
POLD2 (UniProt P49005)	1.04 ± 0.026	1.02 ± 0.057	1.03 ± 0.025	0.974 ± 0.056	1.05 ± 0.049	0.993 ± 0.056
TAGLN2 (UniProt P37802)	0.862 ± 0.056	0.893 ± 0.021	0.877 ± 0.036	0.862 ± 0.016	0.861 ± 0.021	0.84 ± 0.048
